From article PMC7162585 come the findings set out here.

Protein sequences, listed by entry. Tags and fused reporters are not part of them. Residues count along the entry.
UniProt P19491, residues 22-883: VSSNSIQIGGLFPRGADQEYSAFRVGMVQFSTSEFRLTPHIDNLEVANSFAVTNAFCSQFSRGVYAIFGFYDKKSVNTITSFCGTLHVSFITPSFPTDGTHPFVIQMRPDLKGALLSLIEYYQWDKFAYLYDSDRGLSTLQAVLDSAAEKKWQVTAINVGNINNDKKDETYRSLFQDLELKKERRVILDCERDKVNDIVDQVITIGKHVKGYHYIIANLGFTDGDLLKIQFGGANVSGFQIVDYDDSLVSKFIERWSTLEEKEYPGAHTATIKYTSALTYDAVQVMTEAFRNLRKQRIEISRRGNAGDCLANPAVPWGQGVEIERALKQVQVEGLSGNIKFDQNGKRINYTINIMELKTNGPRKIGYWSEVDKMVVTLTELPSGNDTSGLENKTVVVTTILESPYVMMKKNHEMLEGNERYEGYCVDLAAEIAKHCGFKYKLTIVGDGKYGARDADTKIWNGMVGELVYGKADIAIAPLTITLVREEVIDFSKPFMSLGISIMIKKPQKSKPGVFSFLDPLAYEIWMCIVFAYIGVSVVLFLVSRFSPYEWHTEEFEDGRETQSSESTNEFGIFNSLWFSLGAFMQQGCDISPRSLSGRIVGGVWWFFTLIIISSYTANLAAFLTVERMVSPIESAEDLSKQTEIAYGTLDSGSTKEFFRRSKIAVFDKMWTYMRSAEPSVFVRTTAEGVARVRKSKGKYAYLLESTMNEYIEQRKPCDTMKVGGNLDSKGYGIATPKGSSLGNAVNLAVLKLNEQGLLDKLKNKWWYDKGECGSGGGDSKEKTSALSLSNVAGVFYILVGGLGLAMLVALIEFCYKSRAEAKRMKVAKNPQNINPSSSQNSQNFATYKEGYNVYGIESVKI

The target in this assay is GluA2 (AMPA receptor subunit) (rat (endogenous in hippocampus of Sprague-Dawley rats)) (UniProt P19491). Briefly: co-IP; rat hippocampal tissue of epileptic rats homogenized in RIPA lysis buffer; incubated with anti-SAD-B or anti-GluA1-GluA4 antibody (rabbit IgG as control) 12 h at 4°C, protein A/G agarose beads 1.5 h at 4°C; immunoblot with anti-GluA1-GluA4 and anti-SAD-B antibodies.

Results are given in words; binding and its absence hold for the method and conditions named. Binding seen in cells or lysates may run through a third protein. Some binding calls cover weakened binding; strength is not graded here.

B1: Brain-specific serine/threonine-protein kinase 1 (SAD-B) (protein, UniProt B2DD29 1-778)
chain: MSSGSKEGGGGSPAYHLPHPHPHPPQHAQYVGPYRLEKTLGKGQTGLVKLGVHCITGQKVAVKIVNREKLSESVLMKVEREIAILKLIEHPHVLKLHDVYENKKYLYLVLEHVSGGELFDYLVKKGRLTPKEARKFFRQIVSALDFCHSYSICHRDLKPENLLLDEKNNIRIADFGMASLQVGDSLLETSCGSPHYACPEVIKGEKYDGRRADMWSCGVILFALLVGALPFDDDNLRQLLEKVKRGVFHMPHFIPPDCQSLLRGMIEVEPEKRLSLEQIQKHPWYLGGKHEPDPCLEPAPGRRVAMRSLPSNGELDPDVLESMASLGCFRDRERLHRELRSEEENQEKMIYYLLLDRKERYPSCEDQDLPPRNDVDPPRKRVDSPMLSRHGKRRPERKSMEVLSITDAGSGGSPVPTRRALEMAQHSQRSRSVSGASTGLSSSPLSSPRSPVFSFSPEPGVGDEARGGGSPTSKTQTLPSRGPRGGGAGEQPPPPSARSTPLPGPPGSPRSSGGTPLHSPLHTPRASPTGTPGTTPPPSPGGGVGGAAWRSRLNSIRNSFLGSPRFHRRKMQVPTAEEMSSLTPESSPELAKRSWFGNFISLDKEEQIFLVLKDKPLSSIKADIVHAFLSIPSLSHSVLSQTSFRAEYKASGGPSVFQKPVRFQVDISSSEGPEPSPRRDGSSGGGIYSVTFTLISGPSRRFKRVVETIQAQLLSTHDQPSVQALADEKNGAQTRPAGTPPRSLQPPPGRPDPDLSSSPRRGPSKDKKLLATNGTPLP
In the case of B1, the binding entry was “binds”.
